Results from patent US20180305719A1, “Vectors For Integration Of DNA Into Genomes And Methods For Altering Gene Expression And Interrogating Gene Function” (The Board of Trustees of the University of Illinois, priority 2017, published 2018).
At least one compound was matched to its structure with a doubt left.

Columns and labels:
[1] = system: TERT; experiment: TERT expression in SF7996 primary glioblastoma cells with idpTV at the TERT locus, qPCR; assay type: cell-based; conditions: clonal SF7996 cells, TERT controlled by the idpTV
[2] = system: SF7996 primary glioblastoma cells; experiment: Relative proliferation rate of SF7996 cells over 120 days; assay type: cell-based; conditions: SF7996 cells with idpTV at TERT

For `C[C@H]1c2cccc(O)c2C(=O)C2=C(O)[C@]3(O)C(=O)C(C(N)=O)=C(O)[C@@H](N(C)C)[C@@H]3[C@@H](O)[C@@H]21` [doxycycline], the “expression of TERT” value [1] was “induced in a dose-dependent manner” and the “proliferation rate in tetracycline-free medium in comparison with the same cells treated with doxycycline” value [2] was “decreased over time”.
